Assay results reported in patent US7022484B2, “Methods for treating neuropathological states and neurogenic inflammatory states and methods for identifying compounds useful therein” (Board of Regents, The University of Texas System, priority 2000, dated 2006).

Assay: In vitro transfer of drug across the microdialysis membrane
Settings: in vitro estimate

O=c1c(-c2ccc(O)cc2)coc2cc(O)cc(O)c12 [Genistein, 5,7-Dihydroxy-3-(4-hydroxyphenyl)-4H-1-benzopyran-4-one; 4′,5,7-trihydroxy-isoflavone]
drug transferred across the microdialysis membrane: ≤ 5.6%
